Measurements: publication PMC4331745
Results are given in words; binding and its absence hold for the method and conditions named. In cells and extracts the contact can be indirect. Some binding calls cover weakened binding; strength is not graded here.

Chains of the proteins cited; added tags and fusions are not shown.
UniProt Q13185: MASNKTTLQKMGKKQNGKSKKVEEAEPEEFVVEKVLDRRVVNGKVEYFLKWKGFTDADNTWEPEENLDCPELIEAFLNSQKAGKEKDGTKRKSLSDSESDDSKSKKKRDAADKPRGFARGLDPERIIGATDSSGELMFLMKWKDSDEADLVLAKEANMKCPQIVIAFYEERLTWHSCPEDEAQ
UniProt P11309: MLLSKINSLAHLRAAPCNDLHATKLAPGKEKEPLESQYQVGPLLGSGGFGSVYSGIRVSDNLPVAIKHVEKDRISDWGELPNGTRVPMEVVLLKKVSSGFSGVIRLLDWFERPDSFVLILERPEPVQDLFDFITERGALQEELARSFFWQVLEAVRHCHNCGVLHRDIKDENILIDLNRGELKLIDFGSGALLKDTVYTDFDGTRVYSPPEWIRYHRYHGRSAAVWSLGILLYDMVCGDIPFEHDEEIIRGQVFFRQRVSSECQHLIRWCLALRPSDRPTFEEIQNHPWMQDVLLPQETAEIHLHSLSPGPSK

What was measured:
[1] = molecular target: heterochromatin protein 1γ (HP1γ) (human (endogenous in 2BS)) (UniProt Q13185); experiment: co-IP; nuclear extracts of Ras-induced senescent 2BS cells; immunoprecipitation with anti-PIM-1 or anti-HP1γ antibody, then western blot; endogenous proteins
[2] = molecular target: PIM-1 (human (endogenous in 2BS)) (UniProt P11309); experiment: as above

Substance | binding [1] | binding [2]
PIM-1 (from UniProt P11309 1-313) (enzyme) | binds | –
heterochromatin protein 1γ (HP1γ) (from UniProt Q13185 1-183) | – | binds
